Measurements as given in PubChem BioAssay AID1671190 (National Center for Advancing Translational Sciences (NCATS), 2021).
Several values for one entry are separate records, joined by “and”; a condition that tells them apart may be missing. Identical values can stand only once. Among all 580,000 compounds or so, about 6,100 (1.1%) were called active. This list was built around the results that the source calls inconclusive (neither active nor inactive); the mix of calls is not that of the screen. Calls follow the shape of the dose curve; as a rule, active = well fitted inhibition curve with a large enough effect; inconclusive = small, poorly fitted or top-dose-only effect, or another doubt; inactive = no such curve, though single readings can be large or run the other way. Potencies of inconclusive entries are doubtful fits and often do not repeat.

Amino acid sequences for entries named in this document (tags omitted). A change or cut given only in a name is not applied to a line headed by its entry.
UniProt P18054: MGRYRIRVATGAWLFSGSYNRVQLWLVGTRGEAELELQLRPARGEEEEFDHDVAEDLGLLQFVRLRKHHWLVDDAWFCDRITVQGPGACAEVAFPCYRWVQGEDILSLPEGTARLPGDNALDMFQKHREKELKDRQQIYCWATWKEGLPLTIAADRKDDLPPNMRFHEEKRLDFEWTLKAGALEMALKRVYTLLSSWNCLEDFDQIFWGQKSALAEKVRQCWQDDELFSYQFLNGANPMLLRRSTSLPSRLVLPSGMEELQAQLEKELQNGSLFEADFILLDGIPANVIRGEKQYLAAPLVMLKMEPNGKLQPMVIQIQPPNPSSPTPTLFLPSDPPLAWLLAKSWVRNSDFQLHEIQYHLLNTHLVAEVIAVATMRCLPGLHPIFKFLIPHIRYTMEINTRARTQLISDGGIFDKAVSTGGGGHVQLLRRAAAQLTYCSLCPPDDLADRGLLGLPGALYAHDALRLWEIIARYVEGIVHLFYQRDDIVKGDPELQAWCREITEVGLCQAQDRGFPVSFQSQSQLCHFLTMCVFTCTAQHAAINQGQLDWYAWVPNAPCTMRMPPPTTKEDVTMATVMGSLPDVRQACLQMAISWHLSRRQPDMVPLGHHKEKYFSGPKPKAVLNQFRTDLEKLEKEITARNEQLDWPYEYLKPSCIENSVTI

Each compound was assayed against Polyunsaturated fatty acid lipoxygenase ALOX12 (Homo sapiens) (UniProt P18054) (assay: Primary qHTS assay for inhibitors of human arachidonate 12S-lipoxygenase (ALOX12): Round 2). Settings: purified 12hLO, xylenol orange hydroperoxide absorbance; activity change, negative = inhibition: at 108 µM (top of the series) unless noted.
Method in brief: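 Purified human 12hLO (150 nM final) in 25 mM Hepes, 0.01% Triton X-100, pH 7.0 was preincubated 15 min at room temperature with compound. Then 40 uM arachidonic acid was added, 30 min. Hydroperoxide was read by Fe-XO absorbance ratio 573/405 nm.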
% is scaled to controls: 0 for no effect and ±100 for the full control effect; potency is read from the fitted curve at half-maximal effect.

Row | Compound | Potency | activity change, negative = inhibition
1 | COc1ccc(OC)c(C2C(C(C)=O)=C(O)C(=O)N2CCN2CCOCC2)c1 (configuration not stated) | inconclusive: 56.2 µM [inhibitor, partial curve, poor fit] | –
2 | COc1ccccc1C(c1c(N)n(C)c(=O)n(C)c1=O)C(C)[N+](=O)[O-] (configuration not stated) | – | inactive: 0%
3 | N#CC1=C(SCC(=O)c2ccccc2)NC2=C(C(=O)CCC2)C1c1ccco1 (configuration not stated) | inconclusive: 50.1 µM [inhibitor, partial curve, poor fit] | –
4 | COc1ccccc1CNc1ncncc1-c1cccc(C#N)c1 | inconclusive: 7.94 µM [inhibitor, full curve, poor fit] | –
5 | CCc1nc(N2CCCCC2C)c2oc3ccccc3c2n1 (configuration not stated) | inconclusive: 44.7 µM [inhibitor, partial curve, poor fit] | –
6 | COc1ccc2c(c1)oc(=O)c1ccccc12 | – | inactive: -15.6%
7 | CC(=O)c1cccc(NC(=O)CCS(=O)(=O)c2ccc(Br)s2)c1 | inactive | –
8 | COc1ccc(NC(=O)c2cc(=O)c3ccc(C)c(C)c3o2)cc1 | inconclusive: 39.8 µM [inhibitor, single point] | –
9 | S=C(Cc1nc(-c2ccc(C3CCCCC3)cc2)cs1)N1CCOCC1 | inconclusive: 56.2 µM [inhibitor, partial curve, poor fit] | –
10 | CCOCCn1ccc2c(OCC(=O)Nc3ccc(OC(F)(F)F)cc3)cccc2c1=O | inconclusive: 141 µM [inhibitor, partial curve, poor fit] | –
11 | O=C(CSc1ccccc1)N1CCN(S(=O)(=O)c2ccccc2)CC1 | – | inactive: -13.1%
12 | N#C/C(=C/c1ccccc1OC(F)F)C(=O)O | inconclusive: 35.5 µM [inhibitor, partial curve, poor fit] | –
13 | Cc1ccc(C2CC(=O)NC3=C2C(=O)CC(C)(C)C3)cc1 (configuration not stated) | inconclusive: 1.78 µM [inhibitor, partial curve, poor fit] | –
14 | C(=N\Nc1nc(-c2ccccc2)cs1)/c1cccs1 | inconclusive: 28.2 µM [inhibitor, partial curve, poor fit] | –
15 | Cc1ccc(-c2cnc(NCc3ccc(C(F)(F)F)cc3)n2C)cc1 | inconclusive: 1.78 µM [inhibitor, full curve, poor fit] | –
16 | CCN(C(=O)Cn1c(=O)oc2cc(Cl)ccc21)c1cccc(C(F)(F)F)c1 | inconclusive: 15.8 µM [inhibitor, full curve, poor fit] | –
17 | O=C(CCN1C(=O)C2CC=C(Cl)CC2C1=O)N1CCCCC1 (configuration not stated) | – | inactive: -8.45%
18 | CC1CCN(C(c2ccc(N(C)C)cc2)c2nnnn2C(C)(C)C)CC1 (configuration not stated) | – | inactive: 61.8%
19 | CC(C)c1ccc(/C=C/C(=O)NC(=S)NN2CCOCC2)cc1 | inconclusive: 35.5 µM [inhibitor, partial curve, poor fit] | –
20 | COc1ccc2[nH]c3c(c2c1)CCNC31CCN(C(=O)c2c(C)noc2C)CC1 | – | inactive: -4.92%
21 | O=C(O)CCn1cc(/C=C/C(=O)c2ccc(Cl)cc2)c(-c2ccc(Br)cc2)n1 | inconclusive: 56.2 µM [inhibitor, partial curve, poor fit] | –
22 | Cc1nn2c(-c3ccccc3)c(-c3ccccc3)nc2[nH]c1=O | inconclusive: 39.8 µM [inhibitor, partial curve, poor fit] | –
23 | CN(Cc1ccccc1)C(=O)CSc1nc2ccccc2n1Cc1ccccc1F | inconclusive: 89.1 µM [inhibitor, partial curve, poor fit] | –

Row | Compound | Potency | activity change, negative = inhibition
24 | COCCNC(=O)c1ccc2c3n(nc2c1)-c1ccccc1CO3 | inconclusive: 141 µM [inhibitor, single point] | –
25 | CCN1CCN(S(=O)(=O)c2ccc(NC(=O)CCc3ncc(-c4ccc(F)cc4)o3)cc2)CC1 | inconclusive: 100 µM [inhibitor, partial curve, poor fit] | –
26 | CCCc1nc(SC)ncc1C(=O)NCCc1ccc(OC)c(OC)c1 | inconclusive: 112 µM [inhibitor, partial curve, poor fit] | –
27 | CN(C(=O)Nc1cccc(OC(F)F)c1)C1CCCCC1 | – | inactive: 36.8%
28 | COc1cc2c(cc1OC)C(COc1ccc([N+](=O)[O-])cc1)N(C(C)=O)CC2 (configuration not stated) | – | inactive: 0.0362%
29 | NC(=O)c1ccc(NC(=O)COC(=O)c2cc(=O)[nH]c3ccccc23)cc1 | inconclusive: 28.2 µM [inhibitor, single point] | –
30 | COc1cc(CNn2cn[nH]c2=S)cc(Cl)c1OCc1ccc(F)cc1 | inconclusive: 44.7 µM [inhibitor, partial curve, poor fit] | –
31 | CN1c2cc(C(=O)NCc3cccc(F)c3)ccc2C(=O)N2CCCCC21 (configuration not stated) | – | inactive: 28.1%
32 | O=C1NCCCCCCN(Cc2ccncc2)[C@@H]2CN(S(=O)(=O)Cc3ccccc3)CC[C@@H]12 | – | inactive: 10.2%
33 | COc1cc(NC(=O)CSC2=Nc3ccccc3N=C(c3ccc(F)cc3)C2)cc(OC)c1 | inconclusive: 11.2 µM [inhibitor, full curve, poor fit] | –
34 | CCCCCCOc1ccc(/C=C(/C#N)c2ccccn2)cc1 | – | inactive: -9.34%
35 | O=[N+]([O-])c1ccccc1CN1CCN(c2ncccn2)CC1 | inconclusive: 0.355 µM [inhibitor, full curve, poor fit] | –
36 | CCOc1ccc(-c2[nH]nc3c2C(c2cccnc2)C(C#N)=C(N)O3)cc1 (configuration not stated) | inconclusive: 50.1 µM [inhibitor, partial curve, poor fit] | –
37 | COc1cccc(C(=O)Nc2oc3ccc(Cl)cc3c(=O)c2-c2ccccc2)c1 | inconclusive: 50.1 µM [inhibitor, partial curve, poor fit] | –
38 | CC(=O)Nc1nc(N2C(=O)c3ccccc3C2=O)n(-c2ccccc2)n1 | – | inactive: 0%
39 | CC(NC(=O)c1cc([N+](=O)[O-])cc([N+](=O)[O-])c1)C1CC2CCC1C2 (configuration not stated) | inconclusive: 25.1 µM [inhibitor, partial curve, poor fit] | –
40 | CCCOc1nc2ccccc2nc1N1CCC(C(=O)NCc2ccccc2Cl)CC1 | – | inactive: -12.5%
41 | OC[C@@H]1CN(Cc2ccc3c(c2)OCO3)C[C@H](n2cnc3c(NCc4ccncc4)ncnc32)O1 | inconclusive: 126 µM [inhibitor, single point] | –
42 | CC(C)(C)c1cc(NC(=O)Nc2ccc(Br)cc2Cl)no1 | inconclusive: 63.1 µM [inhibitor, partial curve, poor fit] | –
43 | O=C(/C(C=Nc1ccccc1F)=C(/O)c1ccco1)C(F)(F)F | inconclusive: 4.47 µM [inhibitor, full curve, poor fit] | –
44 | CC1(C)C2CCC(C2)C1(C)NC(=O)CN1CCOCC1 (configuration not stated) | inconclusive: 0.708 µM [inhibitor, full curve, poor fit] | –
45 | O=C(Cc1cccs1)N1CC2CC(C1)[C@H]1CCCC(=O)N1C2 (some centres not stated) | – | inactive: 23%
46 | COc1cccc(N2CC34C=CC(O3)C(C(=O)O)C4C2=O)c1 (configuration not stated) | inconclusive: 35.5 µM [inhibitor, partial curve, poor fit] | –

Row | Compound | Potency | activity change, negative = inhibition
47 | CC1=C(O[Si](C)(C)C)CC2C(=O)OC(=O)C2C1c1ccccc1 (configuration not stated) | inconclusive: 35.5 µM [inhibitor, partial curve, poor fit] | –
48 | Oc1cccc2c(-c3nn[nH]n3)ccnc12 | inconclusive: 112 µM [inhibitor, single point] | –
49 | c1ccc(CNC2CCCc3c2cnn3Cc2ccccc2)cc1 (configuration not stated) | – | inactive: 4.69%
50 | O=C(O)CSc1sc(=S)sc1SCC(=O)O | inconclusive: 44.7 µM [inhibitor, partial curve] | –
51 | OC(CNC1Cc2ccccc2C1)COc1ccc(Cl)cc1 (configuration not stated) | inconclusive: 39.8 µM [inhibitor, partial curve] | –
52 | CC(C)CCOc1cccc(N)c1 | inconclusive: 112 µM [inhibitor, single point] | –
53 | CCCCN(Cc1cc2cc(OC)ccc2[nH]c1=O)C(=O)c1ccccn1 | inconclusive: 39.8 µM [inhibitor, single point] and inconclusive: 112 µM [inhibitor, single point] | –
54 | c1csc(CNC2C3CC4CC(C3)CC2C4)c1 (configuration not stated) | inconclusive: 50.1 µM [inhibitor, single point] | –
55 | NS(=O)(=O)c1ccc(NC(=O)c2ccc(CNS(=O)(=O)c3cc(C(F)(F)F)ccc3Cl)cc2)cc1 | – | inactive: 0%
56 | Sc1ccccc1N=Cc1cccs1 | inconclusive: 100 µM [inhibitor, partial curve, poor fit] | –
57 | O=C(c1cn2ccsc2n1)N1CCC2(CCNCC2)CC1 | inconclusive: 10 µM [inhibitor, full curve, poor fit] | –
58 | c1ccc(OCc2nn3c(-c4cccnc4)nnc3s2)cc1 | – | inactive: -1.16%
59 | COCCN(C(=O)CSc1nc2ccc(OC)cc2[nH]1)c1c(N)n(Cc2ccccc2)c(=O)[nH]c1=O | inconclusive: 112 µM [inhibitor, single point] | –
60 | Cc1cc2ccccc2n1CCNC(=O)C(C)(C)C | inconclusive: 35.5 µM [inhibitor, partial curve, poor fit] | –
61 | Fc1ccccc1-n1cc(-c2ccccc2)[nH]c1=S | inconclusive: 50.1 µM [inhibitor, partial curve, poor fit] | –
62 | CCCc1nc(SCC(=O)Nc2nnc(CC)s2)c2c(=O)n(C)c(=O)n(C)c2n1 | – | inactive: 1.71%
63 | O=S(=O)(CCOc1ccccc1)c1nc2ccccc2[nH]1 | – | inactive: 0.536%
64 | COc1ccc(Cl)cc1NC(=O)CSC1=Nc2ccccc2C2=NC(CC(=O)NCc3ccc4c(c3)OCO4)C(=O)N12 (configuration not stated) | inconclusive: 126 µM [inhibitor, single point] | –
65 | O=C(Oc1cccc2ccccc12)c1ccco1 | – | inactive: 0%
66 | Nc1ccc2c(c1)C(O)c1ccc(Cl)cc1-2 (configuration not stated) | inconclusive: 79.4 µM [inhibitor, single point] | –
67 | CCOc1ccccc1C(=O)N1CCC(c2n[nH]c(=O)n2Cc2ccc(OC)cc2)CC1 | inconclusive: 8.91 µM [inhibitor, full curve] | –
